Results: patent publication US9422240B2, “Partially saturated nitrogen-containing heterocyclic compound” (TAISHO PHARMACEUTICAL CO., LTD, priority 2012, dated 2016)
For at least one compound, name, drawing or mass did not settle the structure.

Amino acid sequences for entries named in this document (tags omitted). A change or cut given only in a name is not applied to a line headed by its entry.
UniProt Q9GZT9: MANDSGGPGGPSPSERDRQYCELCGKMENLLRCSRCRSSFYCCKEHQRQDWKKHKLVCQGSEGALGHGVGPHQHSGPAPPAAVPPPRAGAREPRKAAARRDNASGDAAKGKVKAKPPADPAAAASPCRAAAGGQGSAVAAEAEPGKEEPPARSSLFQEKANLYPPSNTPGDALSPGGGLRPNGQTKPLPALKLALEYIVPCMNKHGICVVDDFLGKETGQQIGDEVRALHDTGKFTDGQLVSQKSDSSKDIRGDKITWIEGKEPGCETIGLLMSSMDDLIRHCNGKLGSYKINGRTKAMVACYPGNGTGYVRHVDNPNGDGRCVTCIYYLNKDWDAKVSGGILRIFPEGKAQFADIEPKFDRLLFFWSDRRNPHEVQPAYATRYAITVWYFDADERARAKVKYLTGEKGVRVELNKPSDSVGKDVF

Tests used:
human PHD2 [1] = molecular target: T1, human PHD2 (Homo sapiens (Human), UniProt Q9GZT9); test: Test 2: human PHD2 inhibitory activity, fluorescence polarization assay of HIF-1α peptide proline hydroxylation; format: biochemical; conditions: test compound's concentration 1 μM; Test 2, fluorescence polarization assay
Description: (§1) (1) Expression and Preparation of Human PHD2
A registered sequence of human PHD2 (NM_022051) was introduced into pcDNA3.1/Hygro(+) vector (Invitrogen), and the sequence was verified. […] The suspension of disrupted cells was centrifuged at 4° C. and 100,000×g for 30 minutes and the supernatant was recovered as a cell lysate.
(2) Measurement of Human PHD2 Inhibitory Activity
The activity of human PHD2 enzyme was measured with a substrate which is a 19-residue partial peptide based on the sequence of HIF-1α; specifically, the hydroxylation of a proline residue in the peptide was measured by FP (Fluorescence Polarization).
A test compound and the substrate solution were preliminarily added onto 384-well plates and reaction was initiated by adding a human PHD2 enzyme solution (40 ng/well). After 20-min incubation at 30° C., an EDTA-containing quench solution was added and the amount of the proline residues hydroxylated via binding to an added HIF—OH antibody solution was quantified by fluorescence polarization.
The fluorescence polarization of each well was measured and the human PHD2 inhibitory activity of each test compound was calculated on the basis of the values for the test compound-free group.

human PHD2 [2] = molecular target: T1, human PHD2; test: Test 1: human PHD2 inhibitory activity, [14C]-2-oxoglutarate to [14C]-succinic acid radiometric assay with HIF-1α peptide; format: biochemical; conditions: test compound's concentration 1 μM; Test 1, [14C]-2-oxoglutarate radiometric assay
Description: as §1
Human PHD2 was expressed in insect cells (HighFive cells). A registered sequence of human PHD2 (NM_022051) was introduced into the pFastBacl vector (Invitrogen), and the sequence was verified. The vector was introduced into Sf9 insect cells (Invitrogen) to acquire human PHD2 baculovirus. HighFive insect cells (Invitrogen) were infected with this recombinant virus and cultured at 27° C. for 72 hours; thereafter, a cell lysis solution containing various protease inhibitors was added and the cells were disrupted to form a suspension. The suspension of disrupted cells was centrifuged at 4° C. and 100,000×g for 30 minutes and the supernatant was recovered as a cell lysate. […]
The activity of human PHD2 enzyme was measured with a substrate which is a 19-residue partial peptide based on the sequence of HIF-1α. […]
A test compound, HIF-1αpeptide and [^14C]-2-oxoglutarate were preliminarily added onto 96-well plates and reaction was initiated by adding a human PHD2 enzyme solution (4 μg/well). […] The resulting precipitate was removed by passage through a filter and the radiation count on the [^14C]-succinic acid was quantified (with MicroBeta). Radiation counting was conducted for each well and the human PHD2 inhibitory activity of each test compound was calculated on the basis of the values for the substrate-free group and the test compound-free group.

`[O]C(=O)CNC(=O)C1=C(O)CCN(Cc2ccc(C(F)(F)F)cc2F)C1=O` [Ex. 1-116] was tested, and the “Percent inhibition (% at 1 μM)” value (human PHD2 [1]) was 84% and the “Percent inhibition (% at 1 μM)” value (human PHD2 [2]) was 82%.
